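A panel of P. falciparum strains inside erythrocytes is exposed to compounds for three days, then a DNA-binding dye reports the amount of parasite DNA.
Each compound was titrated across a series from about 0.000037 to 29 µM.
The number is the fitted AC50, the concentration giving a half-maximal change in signal; a lower value means higher potency, whether the curve shows a decrease or an increase.
Calls follow the curve class and fit quality: every row here is inconclusive, covering signal-raising curves and weak, poorly fitted, partial or highest-dose-only inhibition curves.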

Values are in nM.
Every entry below has the call inconclusive.
Only part of the assay is shown, chiefly results filed as inconclusive.
A potency from a partial, single-point or poor curve is only a rough figure.
The first word of each remark tells which way the curve ran; it can be opposite to the aim of the assay.

| # | structure | setting | Potency (nM) | curve |
|---|---|---|---|---|
| 1 | `CCC(C)C(N)C(=O)O` (stereo not given) | GB4 | 4.3 | activator, full curve, poor fit |
| 2 | `CCC(C)C(N)C(=O)O` (stereo not given) | W2 | 23.9 | inhibitor, full curve, poor fit |
| 3 | `CSc1ccc2c(c1)C(N1CCN(C)CC1)Cc1ccccc1S2` (stereo not given) | PAD | 17782 | inhibitor, single point |
| 4 | `CSc1ccc2c(c1)C(N1CCN(C)CC1)Cc1ccccc1S2` (stereo not given) | CP247 | 10000 | inhibitor, single point |
| 5 | `CSc1ccc2c(c1)C(N1CCN(C)CC1)Cc1ccccc1S2` (stereo not given) | DFO2036 | 17782 | inhibitor, single point |
| 6 | `CSc1ccc2c(c1)C(N1CCN(C)CC1)Cc1ccccc1S2` (stereo not given) | CP211 | 15101 | inhibitor, single point |
| 7 | `CSc1ccc2c(c1)C(N1CCN(C)CC1)Cc1ccccc1S2` (stereo not given) | N140 | 10000 | inhibitor, single point |
| 8 | `CSc1ccc2c(c1)C(N1CCN(C)CC1)Cc1ccccc1S2` (stereo not given) | ATS95 | 10000 | inhibitor, single point |
| 9 | `CSc1ccc2c(c1)C(N1CCN(C)CC1)Cc1ccccc1S2` (stereo not given) | P94_40 | 15848 | inhibitor, single point |
| 10 | `CSc1ccc2c(c1)C(N1CCN(C)CC1)Cc1ccccc1S2` (stereo not given) | CP269 | 15101 | inhibitor, single point |
| 11 | `CSc1ccc2c(c1)C(N1CCN(C)CC1)Cc1ccccc1S2` (stereo not given) | CP291 | 7569 | inhibitor, partial curve |
| 12 | `CSc1ccc2c(c1)C(N1CCN(C)CC1)Cc1ccccc1S2` (stereo not given) | TAB109 | 11220 | inhibitor, single point |
| 13 | `CSc1ccc2c(c1)C(N1CCN(C)CC1)Cc1ccccc1S2` (stereo not given) | CP329 | 19011 | inhibitor, single point |
| 14 | `CSc1ccc2c(c1)C(N1CCN(C)CC1)Cc1ccccc1S2` (stereo not given) | PC26 | 19011 | inhibitor, single point |
| 15 | `CSc1ccc2c(c1)C(N1CCN(C)CC1)Cc1ccccc1S2` (stereo not given) | CP325 | 16944 | inhibitor, partial curve, poor fit |
| 16 | `CSc1ccc2c(c1)C(N1CCN(C)CC1)Cc1ccccc1S2` (stereo not given) | CP203 | 16944 | inhibitor, single point |
| 17 | `CSc1ccc2c(c1)C(N1CCN(C)CC1)Cc1ccccc1S2` (stereo not given) | CP191 | 14125 | inhibitor, single point |
| 18 | `CSc1ccc2c(c1)C(N1CCN(C)CC1)Cc1ccccc1S2` (stereo not given) | CP238 | 11220 | inhibitor, partial curve |
| 19 | `CSc1ccc2c(c1)C(N1CCN(C)CC1)Cc1ccccc1S2` (stereo not given) | AA1029 | 11220 | inhibitor, single point |
| 20 | `CSc1ccc2c(c1)C(N1CCN(C)CC1)Cc1ccccc1S2` (stereo not given) | CP237 | 17782 | inhibitor, single point |
| 21 | `CSc1ccc2c(c1)C(N1CCN(C)CC1)Cc1ccccc1S2` (stereo not given) | CP335 | 19011 | inhibitor, single point |
| 22 | `CSc1ccc2c(c1)C(N1CCN(C)CC1)Cc1ccccc1S2` (stereo not given) | C2A | 11220 | inhibitor, single point |
| 23 | `CSc1ccc2c(c1)C(N1CCN(C)CC1)Cc1ccccc1S2` (stereo not given) | CP305 | 10690 | inhibitor, partial curve, poor fit |
| 24 | `CSc1ccc2c(c1)C(N1CCN(C)CC1)Cc1ccccc1S2` (stereo not given) | CP297 | 19011 | inhibitor, single point |
| 25 | `CSc1ccc2c(c1)C(N1CCN(C)CC1)Cc1ccccc1S2` (stereo not given) | TAB113 | 12589 | inhibitor, single point |
| 26 | `CSc1ccc2c(c1)C(N1CCN(C)CC1)Cc1ccccc1S2` (stereo not given) | ATS189 | 10000 | inhibitor, partial curve |
| 27 | `CSc1ccc2c(c1)C(N1CCN(C)CC1)Cc1ccccc1S2` (stereo not given) | SC27B | 10000 | inhibitor, single point |
| 28 | `CSc1ccc2c(c1)C(N1CCN(C)CC1)Cc1ccccc1S2` (stereo not given) | CP286 | 11220 | inhibitor, single point |
| 29 | `CSc1ccc2c(c1)C(N1CCN(C)CC1)Cc1ccccc1S2` (stereo not given) | CP185 | 8912 | inhibitor, partial curve |
| 30 | `CSc1ccc2c(c1)C(N1CCN(C)CC1)Cc1ccccc1S2` (stereo not given) | ECU | 11220 | inhibitor, single point |
| 31 | `CSc1ccc2c(c1)C(N1CCN(C)CC1)Cc1ccccc1S2` (stereo not given) | Dd2 | 11220 | inhibitor, partial curve |
| 32 | `CSc1ccc2c(c1)C(N1CCN(C)CC1)Cc1ccccc1S2` (stereo not given) | CP268 | 19011 | inhibitor, single point |
| 33 | `CSc1ccc2c(c1)C(N1CCN(C)CC1)Cc1ccccc1S2` (stereo not given) | CP215 | 9528 | inhibitor, partial curve |
| 34 | `CSc1ccc2c(c1)C(N1CCN(C)CC1)Cc1ccccc1S2` (stereo not given) | 3D7 | 17782 | inhibitor, single point |
| 35 | `CSc1ccc2c(c1)C(N1CCN(C)CC1)Cc1ccccc1S2` (stereo not given) | AS120 | 10000 | inhibitor, single point |
| 36 | `CSc1ccc2c(c1)C(N1CCN(C)CC1)Cc1ccccc1S2` (stereo not given) | CP217 | 11220 | inhibitor, single point |
| 37 | `CSc1ccc2c(c1)C(N1CCN(C)CC1)Cc1ccccc1S2` (stereo not given) | CP252 | 8912 | inhibitor, single point |
| 38 | `CSc1ccc2c(c1)C(N1CCN(C)CC1)Cc1ccccc1S2` (stereo not given) | DIV30 | 15101 | inhibitor, single point |
| 39 | `CSc1ccc2c(c1)C(N1CCN(C)CC1)Cc1ccccc1S2` (stereo not given) | CP194 | 11995 | inhibitor, partial curve |
| 40 | `COC1=C(OC)C(=O)C(CCCCCCCCCCO)=C(C)C1=O` | P94_40 | 10000 | inhibitor, single point |

For reference, 3 entries once more:

structure,setting,Potency (nM),curve
CSc1ccc2c(c1)C(N1CCN(C)CC1)Cc1ccccc1S2 (stereo not given),TAB113,12589,"inhibitor, single point"
CSc1ccc2c(c1)C(N1CCN(C)CC1)Cc1ccccc1S2 (stereo not given),CP291,7569,"inhibitor, partial curve"
CSc1ccc2c(c1)C(N1CCN(C)CC1)Cc1ccccc1S2 (stereo not given),CP297,19011,"inhibitor, single point"

Source: PubChem BioAssay AID504749 (NCATS, 2011).